# Experimental data taken from PubChem BioAssay AID493014 (National Center for Advancing Translational Sciences (NCATS), 2011).
# Some of the results follow. Further columns of the screen follow, without active or inactive calls. Most of these compounds were active or inconclusive in the main read-out, so they are no random draw. Potencies come from curve fits of mixed quality, noted in brackets.
# Assay: qHTS Assay to Find Inhibitors of Chronic Active B-Cell Receptor Signaling
# Conditions: ABC-DLBCL IkBa-CBG/CBR reporter, luminescence ratio (green luciferase fused to IkBa over red control in TMD8 lymphoma cells), 4 h
# Summary of the method: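 TMD8 human ABC-DLBCL cells with doxycycline-inducible IκBα–green luciferase fusion and unfused red luciferase, in 0.5% FBS medium; compounds up to 46 uM, 4 h at 37C. Green/red luminescence ratio, filter-overlap corrected, fitted to concentration-response curves.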
# [1] = measured here: CBR red luminescence, cell number
smiles,measurement,setting,value
CCOC(=O)Cc1csc(NC(=O)c2sc3nc4ccc(CC)cc4cc3c2N)n1,AC50,[1],"7.08 µM [falling, partial curve]"
CCN(CC)C(=O)c1[nH]cnc1C(=O)Nc1ccc(C)cc1,AC50,[1],"16.4 µM [rising, partial curve, poor fit]"
C=CCSc1nnc(-c2cccc3ccccc23)o1,AC50,[1],"0.517 µM [rising, full curve, poor fit]"
Clc1ccccc1-c1ccc(CN2CCN(c3ccccc3)CC2)o1,AC50,[1],"0.82 µM [rising, full curve, poor fit]"
COCCCNC(=O)CCn1nc(-c2ccc(Cl)cc2)ccc1=O,AC50,[1],"5.62 µM [rising, single point]"
CN(c1ccccc1)S(=O)(=O)c1ccc(C(=O)NCC2CCCO2)cc1 (stereo not drawn),AC50,[1],"0.116 µM [rising, full curve, poor fit]"
NS(=O)(=O)c1ccc(NC(=S)NC2CCCC2)cc1,AC50,[1],"16.4 µM [falling, single point]"
c1ccc(-c2nnc(-c3ccncc3)o2)cc1,AC50,[1],"23.1 µM [falling, partial curve]"
CCOc1cc(C2C(C#N)=C(N)OC(C)=C2C(C)=O)cc(Br)c1O (stereo not drawn),AC50,[1],"3.66 µM [falling, partial curve, poor fit]"
CC1CCc2nc(NC(=O)Cc3cccs3)sc2C1 (stereo not drawn),AC50,[1],"29.1 µM [falling, single point]"
COCCN1Cc2cccc(C(=O)Nc3ccc(-c4nc5ccccc5[nH]4)cc3)c2C1=O,AC50,[1],"0.206 µM [falling, full curve]"
N#Cc1c(-c2ccc(F)cc2)nc2n(c1=O)CCS2,AC50,[1],"0.731 µM [falling, full curve, poor fit]"
O=C(O)c1ccc(-n2cccc2)cc1O,AC50,[1],"6.51 µM [falling, single point]"
COC(=O)C1CCN(C(=O)CN2C(=O)NC3(CCC(C)CC3)C2=O)CC1 (stereo not drawn),AC50,[1],"4.61 µM [rising, full curve, poor fit]"
COc1cccc(N2CC(C(=O)Nc3ccc(C(=O)OC(C)C)cc3)CC2=O)c1 (stereo not drawn),AC50,[1],"5.62 µM [rising, single point]"
CC1=CC2=C(OC1N(C)C)c1cccc3cccc(c13)C2=O (stereo not drawn),AC50,[1],"16.4 µM [falling, partial curve, poor fit]"
O=C(N/N=C1\C(=O)c2cccc3cccc1c23)c1ccc(O)cc1,AC50,[1],"5.62 µM [falling, partial curve, poor fit]"
CCOc1ccc(-n2c(N)c(C(=O)NCC3CCCO3)sc2=S)cc1 (stereo not drawn),AC50,[1],"5.62 µM [rising, partial curve, poor fit]"
O=C(Nc1ccccc1C(=O)O)c1cccc(N2C(=O)c3ccccc3C2=O)c1,AC50,[1],"3.16 µM [falling, partial curve]"
CCOC(=O)c1c(NC(=O)CSc2nnc(CNc3ccc(F)cc3)o2)sc(C(C)=O)c1C,AC50,[1],"18.4 µM [falling, partial curve, poor fit]"
Clc1ccc(Nc2c3c(nc4ncnn24)CCC3)cc1,AC50,[1],"3.55 µM [rising, partial curve]"
CCOC(=O)c1c(O)cc(OC)cc1CCc1ccccc1,AC50,[1],"29.1 µM [rising, single point]"
CCC(=O)Nc1ccc2c(c1)nc(CCN1CCN(c3ccccc3)CC1)n2C,AC50,[1],"0.1 µM [falling, full curve, poor fit]"
Cn1c(C(=O)NCC2CCCO2)cc2c(=O)[nH]c3ccccc3c21 (stereo not drawn),AC50,[1],"23.1 µM [rising, single point]"
Cc1cc(-c2ccccc2)nnc1NCCN1CCOCC1,AC50,[1],"1.46 µM [rising, full curve, poor fit]"
C=CCC[C@@H](Cc1ccc(F)cc1)C(=O)OC[C@@H](Cc1ccccc1)NC(=O)[C@H](CC=C)CC(=O)NCCO,AC50,[1],"25.9 µM [falling, single point]"
CCn1c(Cc2ccccc2)nnc1SCC(=O)c1c(N)n(C2CC2)c(=O)[nH]c1=O,AC50,[1],"23.1 µM [rising, single point]"
O=C(CC12CC3CC(CC(C3)C1)C2)Nc1nncs1,AC50,[1],"17.8 µM [falling, partial curve, poor fit]"
CCOC(=O)C1=CN(Cc2ccco2)S(=O)(=O)N(CC)C1c1ccccc1 (stereo not drawn),AC50,[1],"29.1 µM [falling, single point]"
Cc1cc(C(=O)COC(=O)c2ccc(Br)o2)c(C)n1C,AC50,[1],"3.98 µM [rising, single point]"
C=C(C)COc1ccc(-c2[nH]ncc2Oc2ccccc2OCC)c(O)c1,AC50,[1],"35.5 µM [falling, single point]"
O=C(Nc1cccc(Cl)c1)Nc1cccc(Cl)c1,AC50,[1],"0.326 µM [rising, full curve, poor fit]"
Cc1cc(C)cc(NC(=O)c2ccc3nc[nH]c3c2)c1,AC50,[1],"0.291 µM [falling, partial curve, poor fit]"
C/C(=N\N=C1\NC(=O)C(CC(=O)Nc2ccc(C)c(Cl)c2)S1)C(C)(C)C (stereo not drawn),AC50,[1],"7.94 µM [falling, partial curve, poor fit]"
COC(=O)C(Cc1ccc(O)cc1)NC(=O)c1ccccc1 (stereo not drawn),AC50,[1],"0.231 µM [rising, full curve, poor fit]"
OCCN(Cc1nc(-c2ccc3c(c2)OCO3)no1)Cc1cccs1,AC50,[1],"11.2 µM [rising, partial curve, poor fit]"
Cc1ccc(N2CC(O)Cn3c2nc2c3c(=O)n(C)c(=O)n2C)cc1 (stereo not drawn),AC50,[1],"15.8 µM [rising, partial curve, poor fit]"
COc1ccc(C(=O)CSc2cc(C)nc3nc(C)nn23)cc1OC,AC50,[1],"5.17 µM [rising, single point]"
CCOc1ccc2[nH]c(=O)c(CN(CCO)C(=O)CC)cc2c1,AC50,[1],"6.51 µM [falling, single point]"
COc1ccccc1Cn1c(=O)[nH]c2cccnc21,AC50,[1],"6.51 µM [rising, full curve, poor fit]"
CN(NC(=O)c1ccccc1F)c1nc(C(F)(F)F)nc2ccccc12,AC50,[1],"20 µM [rising, single point]"
same,AC50,measured here: IkBa-CBG green luminescence,"12.6 µM [falling, single point]"
O=c1c(-c2ccccc2Cl)c[nH]n1-c1ccccc1,AC50,[1],"14.1 µM [falling, single point]"

# Rewritten with tabs: entries from further up.
smiles	measurement	setting	value
CCOC(=O)Cc1csc(NC(=O)c2sc3nc4ccc(CC)cc4cc3c2N)n1	AC50	[1]	7.08 µM [falling, partial curve]
O=C(O)c1ccc(-n2cccc2)cc1O	AC50	[1]	6.51 µM [falling, single point]
O=C(N/N=C1\C(=O)c2cccc3cccc1c23)c1ccc(O)cc1	AC50	[1]	5.62 µM [falling, partial curve, poor fit]
CCOC(=O)C1=CN(Cc2ccco2)S(=O)(=O)N(CC)C1c1ccccc1 (stereo not drawn)	AC50	[1]	29.1 µM [falling, single point]
C/C(=N\N=C1\NC(=O)C(CC(=O)Nc2ccc(C)c(Cl)c2)S1)C(C)(C)C (stereo not drawn)	AC50	[1]	7.94 µM [falling, partial curve, poor fit]
Cc1ccc(N2CC(O)Cn3c2nc2c3c(=O)n(C)c(=O)n2C)cc1 (stereo not drawn)	AC50	[1]	15.8 µM [rising, partial curve, poor fit]
CN(NC(=O)c1ccccc1F)c1nc(C(F)(F)F)nc2ccccc12	AC50	measured here: IkBa-CBG green luminescence	12.6 µM [falling, single point]
